Measurements published in PubChem BioAssay AID602254 (Broad Institute, 2012).
The campaign covered roughly 1,000 compounds. Fewer than 10 were called active.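 The calls were made as follows: active = fitted half-maximal concentration no higher than twice the top valid tested dose, with signal falling; inconclusive = flat curve with 30 to 70% inhibition, or poor fit; inactive = the rest.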 Some of the results follow. Results with a measured potency or affinity are listed apart.

Target: Golgi-associated PDZ and coiled-coil motif-containing protein (Homo sapiens) (UniProt Q9HD26)
Test: CAL PDZ domain peptide-binding inhibitors, dose response, biochemical, fluorescence polarization, untagged CAL PDZ, cherry-pick, set 2 (AID 602254);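 also: 0% = DMSO neutral control and -100% = unlabeled peptide PRC23 positive control; more negative means stronger blocking of peptide binding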
Details: Purified CAL PDZ, TMR peptide fluorescence polarization; at 60 µM (top of the series)

Activity change, negative = inhibition, inactive:
Cc1cc(SCc2cccc(Cl)c2)nc(=O)[nH]1 2.61%, COC(=O)c1ccc(NC(=S)Nc2cccc(C)n2)cc1 -2.33%, COc1ccccc1CN(C)C(=O)c1cc(-c2cc(OC)c(OC)c(OC)c2)nc2ccccc12 6.42%, COc1ccc(-c2csc(=NCCO)n2-c2ccccc2)cc1 -3.99%, Cc1ccc(C(=O)Nc2cccc(C(=O)N/N=C/c3ccc(F)cc3)c2)cc1 -1.78%, CC(C)N(C(=O)COC(=O)c1cccc(N(C)C)c1)c1ccccc1 3.1%, O=C(CNC(=O)CNC(=O)c1ccc(Cl)cc1Cl)NCc1cccc(Cl)c1 -0.331%, COc1ccc(-c2ncc(CN3CCN(CCC(C)C)C(CCO)C3)cn2)cc1 (centres undefined) -2.76%, CCOc1ccc(S(=O)(=O)N2Cc3ccccc3CC2C(=O)O)cc1 (centres undefined) -0.217%, COc1ccc(C2NCCc3cc(OC)c(OC)cc32)cc1OC (centres undefined) 1.91%, O=C(Nc1ccnn1C1CCN(CC2CC=CCC2)CC1)c1ccccc1Cl (centres undefined) -1.42%, Cc1cc(C)nc(NCC(O)CNc2ccccc2C)n1 (centres undefined) 2.94%, CCCCS(=O)(=O)N1CCCC(C(=O)Oc2ccccc2)C1 (centres undefined) -3.58%, Cc1ccc2nc(N3CCN(Cc4nnnn4C4CCCC4)CC3)c(C#N)cc2c1 2.55%, CS(=O)(=O)N(CC(=O)Nc1ccc(Cl)c(Cl)c1)C1CCCCC1 -1.08%, NC(=O)C1CCCN(C(=O)CCCNC(=O)c2ccc(Cl)cc2)C1 (centres undefined) 0.745%, CCOC(=O)C1(Cc2ccc(OC)cc2)CCN(C(=O)CCc2cnccn2)CC1 1.47%, Cc1cc(-c2n[nH]c(=S)n2-c2ccccc2C)cs1 0.244%, Cc1n[nH]c(C)c1CCN(C)Cc1cn(C)nc1-c1ccc2c(c1)OCCO2 0.263%, Cc1cc(C)c(S(=O)(=O)NCc2ccc3c(c2)OCO3)c(C)c1 -0.301%, O=C1CCCN1CC(O)CS(=O)(=O)Cc1ccccc1 (centres undefined) -3.87%, CN(C)S(=O)(=O)N1CCN(S(=O)(=O)c2ccccc2)CC1 0.757%, O=C(COc1ccc(Cl)cc1)Nc1cc(NC(=O)COc2ccc(Cl)cc2)cc(C(=O)O)c1 9.23%, CCOC(=O)c1ccc(S(=O)(=O)NCC(C)(C)N2CCOCC2)cc1 0.845%, Cc1ccc(C(=O)CCC(=O)NC2CCCC(C)C2C)cc1 (centres undefined) 3.9%, CN1CCN(c2nc3c(c(=O)[nH]c(=O)n3C)n2Cc2ccccc2F)CC1 3.67%, Cc1ccsc1C(=O)NNC(=O)c1cccc(S(=O)(=O)N2CCCC2)c1 -2.83%, CCOC(=O)C1CCN(c2ccc(-c3cccs3)nn2)CC1 0.333%, CN(C(=O)c1ccno1)c1nnc(-c2cccnc2)s1 -1.54%, Cc1ccc(CNS(=O)(=O)c2c(C(=O)N3CCCCCC3)c(C)n(C)c2C)cc1 0.166%, Cc1ccc(-c2nc3ccccc3c(=O)o2)cc1 0.546%, Clc1ccc(-c2nsc(N3CCOCC3)n2)c(Cl)c1 2.72%, N#CCC(=O)Nc1nc(-c2ccc3c(c2)OCCO3)cs1 0.867%, CSCCC(NC(=O)COc1cccc2ccccc12)C(=O)O (centres undefined) -11.2%, CC(C)CC(=O)c1c[nH]c(C(=O)N2CCN(Cc3ccccc3)CC2)c1 0.08%, COc1cnc(-c2ccccn2)nc1N(C)C -0.111%, CC(C)(C)[C@H]1COC(=O)CCCC/C=C\C[C@H](CC(=O)N(CCO)Cc2ccccc2)C(=O)N1 -0.817%, CCN(CC)S(=O)(=O)c1ccc(NC(=S)NC(=O)CC(C)C)cc1 -1.3%, Cc1cc(C(=O)COC(=O)C2CCN(C(=O)c3ccc(Cl)cc3)CC2)c(C)n1CC1CCCO1 (centres undefined) 2.19%, Cc1ccccc1C(=O)c1cccn1CC(=O)NCCC1=CCCCC1 0.05%, CCOC(=O)C1CCCN(S(=O)(=O)c2ccc(Cl)nc2)C1 (centres undefined) -0.215%, Cc1c(C(=O)N2CCOCC2)c(S(=O)(=O)Nc2ccc(C(C)C)cc2)c(C)n1C -1.06%, COC(=O)[C@H](CC(C)C)N1Cc2cc(OC)cc(OC)c2-c2ccccc2S1(=O)=O -2.9%, C#CCN(C(=O)c1ccc(OC2CCN(Cc3ccccn3)CC2)cc1)C1CCCCC1 0.759%, CC(=O)NC(=S)Nc1cc(C(=O)O)ccc1Cl -0.964%, O=C(Cn1nc(Cc2cccnc2)c2ccccc2c1=O)Nc1cc(F)ccc1F -1.18%, N/N=C(\c1ccccc1)c1cc(Br)ccc1N 1.57%, CC1CC1C(=O)N1CCN(S(=O)(=O)c2cc(C(F)(F)F)cc(C(F)(F)F)c2)CC1 (centres undefined) -1.28%, CC(=O)c1c(C)[nH]c(C(=O)OCC(=O)c2ccc3c(c2)NC(=O)CO3)c1C 2.87%, COc1ccc2cc(S(=O)(=O)N3CCCC3)ccc2c1 2.15%, COC(=O)c1ccc(NC(=O)C2CCCO2)cc1 (centres undefined) -7.93%, O=C(NCc1cccc(F)c1)C1CCC(=O)N(C2CCCC2)C1 (centres undefined) 0.319%, CCN(CC)S(=O)(=O)c1ccc(N2CCOCC2)c(NS(=O)(=O)c2ccc(C)c(C)c2)c1 -1.07%, COc1ccccc1N(CC(=O)N1CCN(c2ccc(F)cc2)CC1)S(=O)(=O)c1ccc(C)cc1 5.13%, COc1cc(C(=O)NNC(=O)c2ccc3c(c2)OCCO3)cc(OC)c1OC 3.06%, Cc1ccc(S(=O)(=O)Nc2ccc(NC(=O)Nc3cccc(C(F)(F)F)c3)cc2)cc1 2.06%, Nc1c2c(nc3ccccc13)CSCC2 -1.19%, COc1ccc(NC2CCCN(C(=O)CCc3ccccc3F)C2)cc1 (centres undefined) -3.34%, COc1ccc(S(=O)(=O)N(C(C)=O)c2ccc3oc(=O)sc3c2)cc1 -5.88%
